In all, about 400,000 compounds went through this assay and about 13,000 (3.2%) were called active. The inconclusive results got no clear call from the source; some entries with a clear call stand among them for comparison. Calls come from the whole dose curve; as a rule, active = well fitted cell-killing curve with a large enough effect; inconclusive = small, poorly fitted or top-dose-only effect, or effect the other way; inactive = flat fitted curve, though single readings scatter. Potencies beside an inconclusive call are fits to weak or partial responses and may not hold up.
assay: qHTS assay for MDR1-selective chemotherapeutics: Primary screen using the drug-selected MDR subline cells KB-V1; details: KB-V1 MDR cells viability, CellTiter-Glo, 72 h; activity change, negative = cytotoxicity: at 46.1 µM (top of the series); note: nearly all actives have a fitted effect of over 60% in size
Summary of the method: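 Luminescent ATP read-out (CellTiter-Glo, 10 min) measures survival of drug-selected KB-V1 MDR cells after 72 h, 37 degrees C compound exposure. Medium: phenol-red-free DMEM, 10% FBS. Values from fitted concentration-response curves.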
% is set by controls: 0 for no effect and ±100 for the full control effect; potency is the fitted concentration of half-maximal effect.

Compound | Potency | activity change, negative = cytotoxicity
COc1ccc2c(c1)[C@H]1[C@H](CO2)[C@H](c2ccccc2)[C@]2(C)C(=O)Nc3ccccc3C(=O)N12 | inconclusive: 29.1 µM [cytotoxic, single point] | –
O=C(CNC(=O)Cc1ccccc1)NCc1cccs1 | – | inactive: 29%
COc1ccccc1NC(=O)c1c(N=Cc2cccc([N+](=O)[O-])c2)cnn1C | inconclusive: 3.66 µM [cytotoxic, full curve] | –
CCOc1ccccc1NC(=O)c1ccc(OCC)c([N+](=O)[O-])c1 | inconclusive: 29.1 µM [rising, single point] | –
CC(C)NC(=O)COC(=O)CNC(=O)C1CCCCC1 | – | inactive: 2.01%
Cc1ccc(O)c([C@H](CCN(C(C)C)C(C)C)c2ccccc2)c1 | inconclusive: 18.4 µM [cytotoxic, partial curve, poor fit] | –
O=C(Nc1cccc(S(=O)(=O)N2CCOCC2)c1)c1ccc2ccccc2n1 | inconclusive: 18.4 µM [cytotoxic, partial curve] | –
CCOc1ccc(N2C(=O)CS/C2=N/NC(=O)COc2ccc3ccccc3c2)cc1 | inconclusive: 3.26 µM [cytotoxic, full curve] | –
CCC(CO)Oc1cc(NCc2ccccc2)c2ncn(C(C)C)c2c1 (configuration not stated) | – | inactive: 8.02%
O=[N+]([O-])c1cc2c(c3cccnc13)COCO2 | inconclusive: 2.59 µM [rising, full curve, poor fit] | –
CCc1c(-c2ccc(F)cc2)ncn1Cc1cccc(-c2ccccc2)c1 | active: 23.1 µM | –
COC(=O)c1cc2oc3ccccc3c2n1CC(=O)Nc1ccc(N(C)C)cc1 | inconclusive: 29.1 µM [rising, single point] | –
Nc1nonc1-n1nnc(C(=O)N/N=C/c2ccco2)c1-c1ccccc1 | inconclusive: 29.1 µM [rising, single point] | –
COc1cc2c(c(OC)c1OC)-c1ccc(SC)c(=O)cc1C(NC(=O)C(F)(F)F)CC2 (configuration not stated) | active: 0.13 µM | –
COc1ccc(OC)c(S(=O)(=O)N/N=C\c2c[nH]c3ccccc23)c1 | inconclusive: 14.6 µM [cytotoxic, partial curve] | –
COc1ccccc1C1CCN(C(=O)c2ccc(C(C)(C)C)cc2)CC1 | – | inactive: -0.803%
O=C(O)c1ccc2c(=O)n3c(nc2c1)/C(=C/c1cccc(Cl)c1Cl)CC3 | inconclusive: 18.4 µM [rising, single point] | –
COc1ccc(-c2sc3ccc(N4CCOCC4)cc3c2C#CCCO)cc1 | inconclusive: 29.1 µM [cytotoxic, single point] | –
N#Cc1cc2c(nc1SCC(=O)N1CCCCC1)CCCCC2 | inconclusive: 8.2 µM [cytotoxic, partial curve, poor fit] | –
CCOc1ccc(CCNC(=O)c2cc3c(-c4ccccc4F)nn(C)c3s2)cc1OCC | – | inactive: -11.4%
CC(=O)NC1(C(F)(F)F)NC(=O)N(CCc2ccccc2)C1=O (configuration not stated) | inconclusive: 29.1 µM [cytotoxic, single point] | –
COc1ccccc1N(CC(=O)N1CCCCCC1)S(C)(=O)=O | – | inactive: 3.68%
CSCC(=O)NC1CCCN(C2Cc3ccccc3C2)C1 (configuration not stated) | – | inactive: -8.01%
O=C(C1CCN(Cc2ccc(Cl)cc2)CC1)N1CCN(Cc2ccc3c(c2)OCO3)CC1 | inconclusive: 29.1 µM [cytotoxic, single point] | –

Compound | Potency | activity change, negative = cytotoxicity
O=C(Nc1cccc([N+](=O)[O-])c1)C1C2CCCCC21 (configuration not stated) | inconclusive: 16.4 µM [rising, partial curve, poor fit] | –
Cc1ccc(C(C(=O)NCc2ccccc2)N(C(=O)c2ccccn2)c2ccccc2)o1 (configuration not stated) | – | inactive: 5.43%
O=C(NCc1ccncc1)c1nc(-c2ccc(C(F)(F)F)cc2)no1 | inconclusive: 18.4 µM [cytotoxic, single point] | –
CN(C)c1ccc2c(c1)Sc1cc(N(C)C)ccc1N2C(=O)c1ccccc1 | inconclusive: 7.31 µM [cytotoxic, partial curve] | –
CN(Cc1ccccc1)C(=O)CSc1nnc(-c2ccco2)n1-c1ccccc1 | active: 3.66 µM | –
CSCCC(C(=O)NC1CCCC1)n1c(-c2ccncc2)nc2ccccc21 (configuration not stated) | inconclusive: 9.2 µM [cytotoxic, partial curve] | –
CN=c1scc(-c2cccs2)n1/N=C/c1ccc(O)c(O)c1O | inconclusive: 32.6 µM [cytotoxic, single point] | –
C=CCc1ccccc1OCC(O)CNC(C)C (configuration not stated) | – | inactive: -27.9%
C/C(Cl)=C\Cn1c(Nc2ccc(C)cc2)nc2c1c(=O)n(C)c(=O)n2C | – | inactive: 0%
c1ccc(-n2nnnc2SCc2cccc(CSc3nnnn3-c3ccccc3)n2)cc1 | inconclusive: 7.31 µM [cytotoxic, partial curve] | –
CCCC[n+]1ccn(C2=C([O-])c3ccccc3C(=O)/C2=N\S(=O)(=O)c2ccc(Br)cc2)c1 | – | inactive: 13.4%
O=[N+]([O-])/C(C(Cl)=C(Cl)Cl)=C(/Sc1ccccc1)N1CCCCC1 | – | inactive: 8.47%
Cc1n[nH]c(C)c1N=Nc1cc(Cl)ccc1Cl | inconclusive: 7.31 µM [cytotoxic, single point] | –
COc1ccc(N(C(=O)COc2ccccc2)C2C=CS(=O)(=O)C2)c(OC)c1 (configuration not stated) | – | inactive: -1.17%
CCc1ccc2[nH]c(=O)c(-c3ccccc3)c(O)c2c1 | – | inactive: 0%
O=C(c1ccc2c(c1)OCCO2)C1CCN(C(=O)Nc2ccccc2F)CC1 | inconclusive: 10.3 µM [cytotoxic, partial curve] | –
COc1ccc(NC(=O)CSc2cn[nH]n2)c(OC)c1 | inconclusive: 29.1 µM [rising, single point] | –
N#Cc1ccc(CN2CCN(C(=O)c3ccccc3)CC2)c(Cl)c1 | active: 20.6 µM | –
O=C(NC1CCCCCC1)C(=S)NCc1ccccc1 | inconclusive: 16.4 µM [cytotoxic, partial curve, poor fit] | –
Cc1cccc(C)c1C(O)c1ncc(-c2ccc(F)cc2)[nH]1 (configuration not stated) | – | inactive: -0.545%
Cc1cccc(N2CCN(C(=O)C3CCN(S(=O)(=O)N4CCOCC4)CC3)CC2)c1C | inconclusive: 6.51 µM [cytotoxic, partial curve] | –
O=C(NNC(=S)Nc1ccc(F)cc1)c1ccccc1OC(F)F | inconclusive: 29.1 µM [cytotoxic, single point] | –
CCOc1ccc(NC(=O)CS(=O)(=O)Cc2nc(-c3ccc(C)cc3)oc2C)cc1 | – | inactive: 13.5%
CCc1ccc(NC(=O)CSc2nnc(-c3n[nH]c4ccccc34)n2-c2ccccc2)cc1 | – | inactive: 3.89%

Single records, as listed above:
Cc1cccc(N2CCN(C(=O)C3CCN(S(=O)(=O)N4CCOCC4)CC3)CC2)c1C as listed: Potency: inconclusive: 6.51 µM [cytotoxic, partial curve]
CCc1ccc(NC(=O)CSc2nnc(-c3n[nH]c4ccccc34)n2-c2ccccc2)cc1 as listed: activity change, negative = cytotoxicity: inactive: 3.89%

(next part)

Compound | Potency | activity change, negative = cytotoxicity
O=C(Nc1ccc(S(=O)(=O)N2CCCC2)cc1)c1cccs1 | inconclusive: 23.1 µM [cytotoxic, partial curve, poor fit] | –
Cc1ccccc1CC1(CO)CCCN(C(=O)c2ccccc2N(C)C)C1 (configuration not stated) | inconclusive: 16.4 µM [cytotoxic, single point] | –
Cc1ccc(OCc2cc(C(=O)N3CCN(C4CCCC4)CC3)no2)cc1C | inconclusive: 20.6 µM [cytotoxic, single point] | –
CCCCOC(=O)c1ccc(NC(=O)c2ccccc2OC)cc1 | inconclusive: 16.4 µM [cytotoxic, single point] | –
CCCCOc1ccc(CC(=O)NO)cc1 | inconclusive: 29.1 µM [cytotoxic, single point] | –
COc1ccc(OC)c2sc(N(CCCN(C)C)C(=O)c3ccco3)nc12 | – | inactive: -8.26%
Cn1nc(-c2ccc(OCC(=O)NCC3CCCO3)cc2)c2ccccc2c1=O (configuration not stated) | inconclusive: 18.4 µM [cytotoxic, single point] | –
Cc1nnc(NC(=O)CSc2nnc3ncccn23)s1 | – | inconclusive: -51.6%
CCOC(=O)N1CCN(S(=O)(=O)c2ccc(F)c(C(=O)Nc3cc(C)cc(C)c3)c2)CC1 | – | inactive: -0.799%
CCc1ccc(C2CC(=O)N(c3ccc(F)cc3)C3=C2C(=O)OC3)cc1 (configuration not stated) | inconclusive: 5.8 µM [rising, full curve] | –
COc1ccc([N+](=O)[O-])cc1NC(=O)c1ccc(N2C(=O)CCC2=O)cc1 | – | inactive: 3.29%
CCOC(=O)CNc1nc(C(C)(C)C)nc2c1nnn2Cc1ccccc1Cl | active: 5.8 µM | –
COC(=O)c1ccc2nc(-c3ccc(Cl)cc3)c(Cc3cccc(Cl)c3)n2c1 | inconclusive: 9.2 µM [cytotoxic, partial curve] | –
COc1ccc(NC(=O)CN(C)C(=O)C(Sc2ccccc2)c2ccccc2)cc1 (configuration not stated) | – | inactive: 17.6%
CCCCCCSc1ccc(-c2nc3ccc(C)cn3c2NCc2ccccc2)cc1 | inconclusive: 5.8 µM [cytotoxic, full curve, poor fit] | –
Cc1cccc2cc(CN(Cc3ccccc3)C(=O)c3cccc(F)c3)c(Cl)nc12 | active: 18.4 µM | –
COc1ccc(C(=O)NCc2ccc(Cl)c(Cl)c2)cc1OC | inconclusive: 36.6 µM [cytotoxic, partial curve, poor fit] | –
CSc1ccccc1NC(=O)C(=O)c1c[nH]c2ccccc12 | inconclusive: 20.6 µM [cytotoxic, single point] | –
COc1cc(NC(=O)CCc2nnc3ccc(N4CCC(C)CC4)nn23)cc(OC)c1 | inconclusive: 0.58 µM [cytotoxic, full curve] | –
COc1ccc(OC)c(NC(=O)CSc2ncnc3sc(C)cc23)c1 | inconclusive: 20.6 µM [rising, partial curve, poor fit] | –
CCCCCn1c(=O)[nH]c2cc(C(=O)N3CCN(Cc4ccc5c(c4)OCO5)CC3)ccc2c1=O | – | inactive: 0%
CCOc1ccccc1-n1nnnc1SCC(=O)NC(=O)NCc1ccco1 | – | inactive: -14.3%
CCOC(=O)c1ccc2nc(NC(=O)c3cccs3)sc2c1 | – | inactive: 0%
Cc1cc(C)n2c(Nc3ccc4c(c3)OCCO4)c(C3CC3)nc2n1 | inconclusive: 18.4 µM [cytotoxic, single point] | –
